# Source: the supplement of paper PMC6411743
# Amino acid sequences for entries named in this document (tags omitted). A change or cut given only in a name is not applied to a line headed by its entry.
# UniProt P27348: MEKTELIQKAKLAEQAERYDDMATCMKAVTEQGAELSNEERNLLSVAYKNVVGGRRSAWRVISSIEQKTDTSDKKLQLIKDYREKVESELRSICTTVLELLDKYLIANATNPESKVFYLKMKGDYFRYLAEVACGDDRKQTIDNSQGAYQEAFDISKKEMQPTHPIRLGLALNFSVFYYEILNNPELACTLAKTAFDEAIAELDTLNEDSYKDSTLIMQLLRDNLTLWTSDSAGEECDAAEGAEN
# UniProt O00193: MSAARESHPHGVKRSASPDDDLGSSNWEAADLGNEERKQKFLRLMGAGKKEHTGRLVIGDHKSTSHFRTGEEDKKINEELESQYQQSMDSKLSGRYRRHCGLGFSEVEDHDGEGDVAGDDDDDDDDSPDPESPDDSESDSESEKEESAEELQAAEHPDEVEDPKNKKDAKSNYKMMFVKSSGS
# UniProt P98171: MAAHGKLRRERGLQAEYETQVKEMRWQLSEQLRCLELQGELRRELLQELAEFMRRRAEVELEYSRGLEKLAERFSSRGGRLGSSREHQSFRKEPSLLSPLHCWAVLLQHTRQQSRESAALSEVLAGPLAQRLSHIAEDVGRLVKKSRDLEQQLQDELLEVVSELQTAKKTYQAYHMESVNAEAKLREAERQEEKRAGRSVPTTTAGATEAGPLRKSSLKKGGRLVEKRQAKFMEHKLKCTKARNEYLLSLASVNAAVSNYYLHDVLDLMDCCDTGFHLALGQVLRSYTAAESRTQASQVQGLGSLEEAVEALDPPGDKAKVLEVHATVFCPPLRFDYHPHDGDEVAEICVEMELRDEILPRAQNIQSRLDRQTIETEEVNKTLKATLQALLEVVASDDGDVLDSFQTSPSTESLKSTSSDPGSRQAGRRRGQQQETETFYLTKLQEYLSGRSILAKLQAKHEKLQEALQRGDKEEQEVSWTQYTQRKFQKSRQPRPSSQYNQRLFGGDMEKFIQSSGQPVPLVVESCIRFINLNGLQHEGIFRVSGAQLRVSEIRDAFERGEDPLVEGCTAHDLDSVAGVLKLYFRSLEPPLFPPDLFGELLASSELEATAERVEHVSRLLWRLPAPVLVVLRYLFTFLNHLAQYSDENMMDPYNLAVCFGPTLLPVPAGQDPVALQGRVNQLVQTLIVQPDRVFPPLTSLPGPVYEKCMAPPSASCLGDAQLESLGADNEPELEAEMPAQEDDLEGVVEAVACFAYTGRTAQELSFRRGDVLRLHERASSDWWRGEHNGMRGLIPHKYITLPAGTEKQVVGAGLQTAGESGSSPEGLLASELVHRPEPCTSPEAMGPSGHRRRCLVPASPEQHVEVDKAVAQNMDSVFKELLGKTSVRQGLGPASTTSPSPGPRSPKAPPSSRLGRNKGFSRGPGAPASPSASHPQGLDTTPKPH
# UniProt Q9UHB6: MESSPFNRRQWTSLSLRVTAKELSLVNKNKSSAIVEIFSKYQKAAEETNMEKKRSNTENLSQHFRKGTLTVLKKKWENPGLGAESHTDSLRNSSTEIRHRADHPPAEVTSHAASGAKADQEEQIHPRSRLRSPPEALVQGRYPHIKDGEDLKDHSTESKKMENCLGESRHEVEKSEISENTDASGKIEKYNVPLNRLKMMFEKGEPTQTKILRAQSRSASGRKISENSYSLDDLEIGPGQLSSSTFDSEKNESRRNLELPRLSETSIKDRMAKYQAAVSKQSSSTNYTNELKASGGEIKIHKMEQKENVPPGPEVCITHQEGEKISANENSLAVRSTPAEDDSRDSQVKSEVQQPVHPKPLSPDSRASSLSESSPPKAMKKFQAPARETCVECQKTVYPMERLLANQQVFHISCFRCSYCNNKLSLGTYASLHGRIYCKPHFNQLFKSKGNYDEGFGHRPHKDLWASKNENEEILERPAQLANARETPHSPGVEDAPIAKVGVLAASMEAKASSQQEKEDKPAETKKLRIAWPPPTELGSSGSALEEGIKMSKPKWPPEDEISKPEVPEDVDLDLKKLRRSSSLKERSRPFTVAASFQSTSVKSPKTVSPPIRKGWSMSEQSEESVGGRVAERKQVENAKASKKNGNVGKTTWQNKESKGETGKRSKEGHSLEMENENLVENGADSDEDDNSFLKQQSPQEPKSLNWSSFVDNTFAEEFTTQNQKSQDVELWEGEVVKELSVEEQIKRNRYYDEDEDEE
# ± gives the standard deviation of the averaged measurements. The list shows a part of the results.
# Compound: Nc1nc2c(ncn2[C@@H]2O[C@H](COP(=O)(O)OP(=O)(O)OP(=O)(O)O)[C@@H](O)[C@H]2O)c(=O)[nH]1 [guanosine triphosphate]
# Assay: NP40-soluble protein abundance relative to vehicle (solubility fold change) (ratio); higher = more soluble protein in presence of GTP
# Description: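 Solubility proteome profiling in Jurkat crude lysate. Lysate was treated with Mg-GTP (0.1-10 mM) for 10 min at room temperature and 3 min at 37 °C, then solubilised with 0.8% NP40 and benzonase, followed by ultracentrifugation. Proteins were quantified by TMT10 LC-MS/MS; the value is the NP40-soluble abundance relative to the NP40-processed vehicle, from 3 independent experiments.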
target,measurement,setting,value
E9PG15 and related entries (UniProt P27348),NP40-soluble protein abundance,concentration: 0.1mM,0.787 ± 0.082
same,NP40-soluble protein abundance,concentration: 0.5mM,0.767 ± 0.071
same,NP40-soluble protein abundance,concentration: 1mM,0.943 ± 0.087
same,NP40-soluble protein abundance,concentration: 2mM,0.951 ± 0.033
same,NP40-soluble protein abundance,concentration: 4mM,0.887 ± 0.037
same,NP40-soluble protein abundance,concentration: 6mM,0.928 ± 0.051
same,NP40-soluble protein abundance,concentration: 8mM,0.803 ± 0.13
same,NP40-soluble protein abundance,concentration: 10mM,0.977 ± 0.075
E9PM92 and related entries (UniProt O00193+E9PM92),NP40-soluble protein abundance,concentration: 0.1mM,0.96 ± 0.058
same,NP40-soluble protein abundance,concentration: 0.5mM,1.02 ± 0.085
same,NP40-soluble protein abundance,concentration: 1mM,1.25 ± 0.036
same,NP40-soluble protein abundance,concentration: 2mM,1.17 ± 0.093
same,NP40-soluble protein abundance,concentration: 4mM,1.15 ± 0.055
same,NP40-soluble protein abundance,concentration: 6mM,1.2 ± 0.14
same,NP40-soluble protein abundance,concentration: 8mM,1.22 ± 0.092
same,NP40-soluble protein abundance,concentration: 10mM,1.28 ± 0.032
E9PKV2 and related entries (UniProt Q9NRX2),NP40-soluble protein abundance,concentration: 0.1mM,1.04 ± 0.22
same,NP40-soluble protein abundance,concentration: 0.5mM,1.04 ± 0.14
same,NP40-soluble protein abundance,concentration: 1mM,1.28 ± 0.37
same,NP40-soluble protein abundance,concentration: 2mM,1.37 ± 0.42
same,NP40-soluble protein abundance,concentration: 4mM,1.25 ± 0.29
same,NP40-soluble protein abundance,concentration: 6mM,1.3 ± 0.38
same,NP40-soluble protein abundance,concentration: 8mM,1.31 ± 0.39
same,NP40-soluble protein abundance,concentration: 10mM,1.27 ± 0.53
E7EQN5 and related entries (UniProt P98171),NP40-soluble protein abundance,concentration: 0.1mM,1.03 ± 0.016
same,NP40-soluble protein abundance,concentration: 0.5mM,1.05 ± 0.025
same,NP40-soluble protein abundance,concentration: 1mM,0.9909 ± 0.0031
same,NP40-soluble protein abundance,concentration: 2mM,1.02 ± 0.033
same,NP40-soluble protein abundance,concentration: 4mM,0.985 ± 0.018
same,NP40-soluble protein abundance,concentration: 6mM,0.9975 ± 0.0053
same,NP40-soluble protein abundance,concentration: 8mM,0.9806 ± 0.0087
same,NP40-soluble protein abundance,concentration: 10mM,0.968 ± 0.033
F8VQE1 and related entries (UniProt Q9UHB6),NP40-soluble protein abundance,concentration: 0.1mM,0.977 ± 0.045
same,NP40-soluble protein abundance,concentration: 0.5mM,0.955 ± 0.12
same,NP40-soluble protein abundance,concentration: 1mM,1.16 ± 0.11
same,NP40-soluble protein abundance,concentration: 2mM,1.16 ± 0.1
same,NP40-soluble protein abundance,concentration: 4mM,1.35 ± 0.12
same,NP40-soluble protein abundance,concentration: 6mM,1.71 ± 0.067
same,NP40-soluble protein abundance,concentration: 8mM,1.95 ± 0.29
same,NP40-soluble protein abundance,concentration: 10mM,2.21 ± 0.23

# An excerpt of these results, as tab-separated lines.
target	measurement	setting	value
E9PKV2 and related entries (UniProt Q9NRX2)	NP40-soluble protein abundance	concentration: 0.5mM	1.04 ± 0.14
E7EQN5 and related entries (UniProt P98171)	NP40-soluble protein abundance	concentration: 4mM	0.985 ± 0.018
